Some peptides are written in HELM: one residue between dots, names in brackets for other building blocks, links after the first $.

This data set can be described thus: general procedure: peptide synthesis; EDC/HBT. As to conditions: coupling step.

For “PEPTIDE1{[ac].P.L.G.[SLeu].L.G.[OEt]}$$$$V2.0”, the step yield turned out to be 73%.
